The results in this text go back to publication PMC3400559.

This assay concerns the target T1, MFAP-1 (C. elegans microfibrillar-associated protein 1) (C. elegans) (UniProt Q93712).
T1 sequence: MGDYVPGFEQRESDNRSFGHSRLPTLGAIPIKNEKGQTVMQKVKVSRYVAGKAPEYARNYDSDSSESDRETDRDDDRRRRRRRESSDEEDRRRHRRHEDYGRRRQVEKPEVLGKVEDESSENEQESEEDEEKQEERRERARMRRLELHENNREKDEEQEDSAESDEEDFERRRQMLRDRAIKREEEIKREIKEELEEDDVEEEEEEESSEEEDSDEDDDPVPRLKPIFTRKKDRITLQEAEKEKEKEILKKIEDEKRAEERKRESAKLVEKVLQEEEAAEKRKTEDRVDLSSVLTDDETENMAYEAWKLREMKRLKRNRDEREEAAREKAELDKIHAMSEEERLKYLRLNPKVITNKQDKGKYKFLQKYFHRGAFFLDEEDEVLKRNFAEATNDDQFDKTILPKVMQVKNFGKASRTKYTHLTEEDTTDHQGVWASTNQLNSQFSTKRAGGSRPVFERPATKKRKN
Kind of assay: two-hybrid; screen: bait full-length MFAP-1 in pGBK T7, preys from a pACT2.2 C. elegans library, S. cerevisiae PJ69-4A, growth on SD-Leu-Trp-His with 5 mM 3-AT; clones isolated, retested, and no survival with the pGBK T7 empty vector.

No constants are given. Whether binding was seen depends on the method and setting. Binding calls can cover weak binding; strength is not graded here.

Turning to “T22H9.1 (protein involved in rRNA processing) (C. elegans)”, the binding entry is “binds”.
